Earlier results as cited in US20090202444A1 (priority 2009, published 2009).
At least one compound was matched to its structure with a doubt left.

System: X. fastidiosa
Settings: in vivo

SMILES: CN(C)[C@@H]1C(O)=C(C(N)=O)C(=O)[C@@]2(O)C(O)=C3C(=O)c4c(O)cccc4[C@@](C)(O)[C@H]3[C@H](O)[C@@H]12 [oxytetracycline]
- effect on disease: temporary suppression of disease
